ChEMBL document CHEMBL2218924, “A broad activity screen in support of a chemogenomic map for kinase signalling research and drug discovery” (Biochem J, 2013)
For some assays here: Most of the strong results are listed elsewhere, so they are rarer here than in the full data. Only a part is listed here, and it is no random draw.

Protein sequences, listed by entry. Tags and fused reporters are not part of them. Lines headed by an entry give the natural chain unless they say otherwise; changes in a name come on top.
UniProt Q8NG66: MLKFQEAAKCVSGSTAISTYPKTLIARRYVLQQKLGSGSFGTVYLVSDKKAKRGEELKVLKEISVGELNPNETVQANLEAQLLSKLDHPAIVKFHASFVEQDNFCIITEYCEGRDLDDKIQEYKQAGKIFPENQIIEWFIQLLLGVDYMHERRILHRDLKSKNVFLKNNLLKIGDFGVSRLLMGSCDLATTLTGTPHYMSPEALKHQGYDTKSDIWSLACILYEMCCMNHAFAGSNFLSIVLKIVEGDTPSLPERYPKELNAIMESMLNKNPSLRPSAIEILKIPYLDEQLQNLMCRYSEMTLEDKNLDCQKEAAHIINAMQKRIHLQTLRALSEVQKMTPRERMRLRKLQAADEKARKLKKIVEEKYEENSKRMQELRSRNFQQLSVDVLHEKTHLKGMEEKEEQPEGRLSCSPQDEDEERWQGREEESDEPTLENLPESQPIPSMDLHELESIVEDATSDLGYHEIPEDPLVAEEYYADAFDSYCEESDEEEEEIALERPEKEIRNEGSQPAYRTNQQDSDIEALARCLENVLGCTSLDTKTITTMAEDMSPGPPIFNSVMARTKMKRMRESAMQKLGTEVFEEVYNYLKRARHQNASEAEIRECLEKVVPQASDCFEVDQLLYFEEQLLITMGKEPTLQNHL
UniProt P51956: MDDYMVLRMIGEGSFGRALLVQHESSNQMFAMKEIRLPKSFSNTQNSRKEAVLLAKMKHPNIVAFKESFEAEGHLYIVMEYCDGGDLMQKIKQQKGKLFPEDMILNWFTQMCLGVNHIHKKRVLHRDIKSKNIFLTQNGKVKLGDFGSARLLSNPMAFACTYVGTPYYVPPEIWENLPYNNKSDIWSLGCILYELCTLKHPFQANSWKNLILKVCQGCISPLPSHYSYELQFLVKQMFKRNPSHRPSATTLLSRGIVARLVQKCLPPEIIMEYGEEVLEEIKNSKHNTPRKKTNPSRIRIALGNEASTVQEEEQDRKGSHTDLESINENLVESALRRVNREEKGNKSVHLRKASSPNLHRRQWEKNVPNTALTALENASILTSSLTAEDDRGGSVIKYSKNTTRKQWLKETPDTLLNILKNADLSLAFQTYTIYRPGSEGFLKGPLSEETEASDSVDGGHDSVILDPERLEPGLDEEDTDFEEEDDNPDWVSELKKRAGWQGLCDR
UniProt Q86UE8, whole entry, looked up: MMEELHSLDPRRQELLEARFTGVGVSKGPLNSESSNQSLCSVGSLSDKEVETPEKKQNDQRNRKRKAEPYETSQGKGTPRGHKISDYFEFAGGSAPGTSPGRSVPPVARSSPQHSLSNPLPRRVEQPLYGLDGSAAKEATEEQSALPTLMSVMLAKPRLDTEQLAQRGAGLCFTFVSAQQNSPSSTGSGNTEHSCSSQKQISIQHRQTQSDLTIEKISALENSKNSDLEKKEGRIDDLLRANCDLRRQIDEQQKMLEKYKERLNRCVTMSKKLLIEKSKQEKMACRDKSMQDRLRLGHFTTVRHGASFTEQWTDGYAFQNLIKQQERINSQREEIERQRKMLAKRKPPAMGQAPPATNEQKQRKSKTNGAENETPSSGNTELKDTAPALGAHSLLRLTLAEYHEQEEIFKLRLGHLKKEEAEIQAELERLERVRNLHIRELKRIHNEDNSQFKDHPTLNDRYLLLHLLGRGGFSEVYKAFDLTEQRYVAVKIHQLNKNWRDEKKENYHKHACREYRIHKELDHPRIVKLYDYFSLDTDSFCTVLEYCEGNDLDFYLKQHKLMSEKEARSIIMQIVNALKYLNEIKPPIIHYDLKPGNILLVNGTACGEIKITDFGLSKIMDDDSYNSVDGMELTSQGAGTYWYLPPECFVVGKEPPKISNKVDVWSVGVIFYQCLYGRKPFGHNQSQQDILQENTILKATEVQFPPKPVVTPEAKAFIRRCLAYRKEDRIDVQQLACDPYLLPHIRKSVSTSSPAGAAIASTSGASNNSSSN
UniProt Q9BXA7: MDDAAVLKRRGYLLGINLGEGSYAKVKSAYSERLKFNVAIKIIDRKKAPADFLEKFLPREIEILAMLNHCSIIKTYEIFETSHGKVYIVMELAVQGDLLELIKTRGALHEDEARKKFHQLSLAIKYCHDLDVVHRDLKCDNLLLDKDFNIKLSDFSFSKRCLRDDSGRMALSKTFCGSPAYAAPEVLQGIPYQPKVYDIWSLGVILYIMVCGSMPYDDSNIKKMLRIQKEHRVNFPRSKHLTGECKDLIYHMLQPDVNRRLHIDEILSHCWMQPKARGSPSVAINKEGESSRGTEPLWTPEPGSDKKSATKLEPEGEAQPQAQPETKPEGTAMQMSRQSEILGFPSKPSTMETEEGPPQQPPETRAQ
UniProt Q02763: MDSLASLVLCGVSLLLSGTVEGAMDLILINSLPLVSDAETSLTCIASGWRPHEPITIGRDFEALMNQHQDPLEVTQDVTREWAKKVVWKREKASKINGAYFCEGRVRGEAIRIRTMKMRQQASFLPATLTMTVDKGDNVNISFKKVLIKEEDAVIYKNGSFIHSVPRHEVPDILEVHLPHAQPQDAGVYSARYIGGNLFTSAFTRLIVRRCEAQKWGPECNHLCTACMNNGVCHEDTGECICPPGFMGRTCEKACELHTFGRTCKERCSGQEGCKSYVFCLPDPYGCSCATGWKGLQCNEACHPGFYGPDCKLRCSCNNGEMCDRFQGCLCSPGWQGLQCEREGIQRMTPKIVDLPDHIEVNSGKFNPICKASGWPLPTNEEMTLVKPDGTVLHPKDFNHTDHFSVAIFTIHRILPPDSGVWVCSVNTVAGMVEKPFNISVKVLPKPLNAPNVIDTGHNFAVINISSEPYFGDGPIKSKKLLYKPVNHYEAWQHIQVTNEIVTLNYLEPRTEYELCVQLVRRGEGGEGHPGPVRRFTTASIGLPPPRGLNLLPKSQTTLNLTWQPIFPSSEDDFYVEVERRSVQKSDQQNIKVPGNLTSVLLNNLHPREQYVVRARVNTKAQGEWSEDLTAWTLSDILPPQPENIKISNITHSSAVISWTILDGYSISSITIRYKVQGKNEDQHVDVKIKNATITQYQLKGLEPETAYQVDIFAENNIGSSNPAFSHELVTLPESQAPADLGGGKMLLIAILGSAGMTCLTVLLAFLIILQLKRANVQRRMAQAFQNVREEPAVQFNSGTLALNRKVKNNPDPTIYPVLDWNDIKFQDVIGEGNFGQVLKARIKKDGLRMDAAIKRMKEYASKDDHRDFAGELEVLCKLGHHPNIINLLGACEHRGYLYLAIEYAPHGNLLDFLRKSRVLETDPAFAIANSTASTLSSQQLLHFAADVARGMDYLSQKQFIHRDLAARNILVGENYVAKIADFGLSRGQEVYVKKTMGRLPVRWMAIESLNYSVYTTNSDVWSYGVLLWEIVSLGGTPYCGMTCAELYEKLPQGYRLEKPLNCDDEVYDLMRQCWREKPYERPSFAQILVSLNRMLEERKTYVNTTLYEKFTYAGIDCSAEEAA
UniProt Q8IYT8: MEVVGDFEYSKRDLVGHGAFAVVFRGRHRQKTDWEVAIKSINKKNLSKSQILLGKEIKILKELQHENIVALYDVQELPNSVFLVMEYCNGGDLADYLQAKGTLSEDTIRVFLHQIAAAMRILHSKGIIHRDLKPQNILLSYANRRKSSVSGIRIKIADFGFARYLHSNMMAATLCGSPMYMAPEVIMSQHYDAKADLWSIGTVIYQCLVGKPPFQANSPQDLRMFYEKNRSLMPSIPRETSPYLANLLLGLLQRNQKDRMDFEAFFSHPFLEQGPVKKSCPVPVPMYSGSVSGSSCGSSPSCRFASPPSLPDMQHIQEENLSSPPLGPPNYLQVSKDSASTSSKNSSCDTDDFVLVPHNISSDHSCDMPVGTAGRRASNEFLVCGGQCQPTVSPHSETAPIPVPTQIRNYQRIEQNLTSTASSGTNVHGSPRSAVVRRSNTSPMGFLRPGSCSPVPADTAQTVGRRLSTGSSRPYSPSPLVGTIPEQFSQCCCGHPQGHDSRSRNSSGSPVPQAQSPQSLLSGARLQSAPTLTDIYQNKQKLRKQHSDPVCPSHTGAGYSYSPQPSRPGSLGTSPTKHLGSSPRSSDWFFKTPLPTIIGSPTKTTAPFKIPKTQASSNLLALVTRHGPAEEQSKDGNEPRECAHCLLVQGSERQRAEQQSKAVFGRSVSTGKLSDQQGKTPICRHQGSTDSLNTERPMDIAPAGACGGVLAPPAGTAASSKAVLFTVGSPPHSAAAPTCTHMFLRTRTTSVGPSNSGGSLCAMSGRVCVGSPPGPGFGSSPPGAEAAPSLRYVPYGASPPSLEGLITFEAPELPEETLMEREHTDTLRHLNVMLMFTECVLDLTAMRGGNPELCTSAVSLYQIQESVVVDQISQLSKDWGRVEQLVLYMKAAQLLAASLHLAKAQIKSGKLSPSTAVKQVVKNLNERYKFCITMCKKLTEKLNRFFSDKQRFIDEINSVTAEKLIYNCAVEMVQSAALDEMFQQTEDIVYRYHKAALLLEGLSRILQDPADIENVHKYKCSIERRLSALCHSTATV
UniProt P07947, whole entry, looked up: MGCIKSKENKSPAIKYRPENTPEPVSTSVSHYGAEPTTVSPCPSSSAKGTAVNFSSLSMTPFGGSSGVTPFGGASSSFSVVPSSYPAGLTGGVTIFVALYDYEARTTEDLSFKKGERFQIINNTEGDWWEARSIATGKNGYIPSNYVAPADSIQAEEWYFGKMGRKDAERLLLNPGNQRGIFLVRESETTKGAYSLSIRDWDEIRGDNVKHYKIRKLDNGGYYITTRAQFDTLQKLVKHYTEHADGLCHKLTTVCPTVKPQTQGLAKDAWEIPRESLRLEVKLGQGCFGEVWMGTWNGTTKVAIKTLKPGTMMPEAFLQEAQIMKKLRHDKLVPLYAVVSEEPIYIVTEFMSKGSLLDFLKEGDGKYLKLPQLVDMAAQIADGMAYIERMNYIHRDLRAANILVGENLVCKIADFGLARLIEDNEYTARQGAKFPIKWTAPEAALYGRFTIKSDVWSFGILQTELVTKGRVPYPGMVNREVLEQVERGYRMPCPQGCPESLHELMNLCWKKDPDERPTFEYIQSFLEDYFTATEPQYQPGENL
UniProt O43293: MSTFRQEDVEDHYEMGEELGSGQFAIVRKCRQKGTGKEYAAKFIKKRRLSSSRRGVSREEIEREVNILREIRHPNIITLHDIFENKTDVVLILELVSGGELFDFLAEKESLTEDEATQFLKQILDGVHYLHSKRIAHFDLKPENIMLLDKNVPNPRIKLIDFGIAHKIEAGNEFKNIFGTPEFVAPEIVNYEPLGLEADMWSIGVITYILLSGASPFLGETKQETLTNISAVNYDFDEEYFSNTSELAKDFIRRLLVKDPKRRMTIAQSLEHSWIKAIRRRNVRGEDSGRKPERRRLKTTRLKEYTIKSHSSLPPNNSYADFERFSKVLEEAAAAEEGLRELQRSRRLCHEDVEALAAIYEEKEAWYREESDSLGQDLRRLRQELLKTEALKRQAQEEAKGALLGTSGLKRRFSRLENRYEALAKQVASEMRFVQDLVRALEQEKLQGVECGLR
UniProt O00418: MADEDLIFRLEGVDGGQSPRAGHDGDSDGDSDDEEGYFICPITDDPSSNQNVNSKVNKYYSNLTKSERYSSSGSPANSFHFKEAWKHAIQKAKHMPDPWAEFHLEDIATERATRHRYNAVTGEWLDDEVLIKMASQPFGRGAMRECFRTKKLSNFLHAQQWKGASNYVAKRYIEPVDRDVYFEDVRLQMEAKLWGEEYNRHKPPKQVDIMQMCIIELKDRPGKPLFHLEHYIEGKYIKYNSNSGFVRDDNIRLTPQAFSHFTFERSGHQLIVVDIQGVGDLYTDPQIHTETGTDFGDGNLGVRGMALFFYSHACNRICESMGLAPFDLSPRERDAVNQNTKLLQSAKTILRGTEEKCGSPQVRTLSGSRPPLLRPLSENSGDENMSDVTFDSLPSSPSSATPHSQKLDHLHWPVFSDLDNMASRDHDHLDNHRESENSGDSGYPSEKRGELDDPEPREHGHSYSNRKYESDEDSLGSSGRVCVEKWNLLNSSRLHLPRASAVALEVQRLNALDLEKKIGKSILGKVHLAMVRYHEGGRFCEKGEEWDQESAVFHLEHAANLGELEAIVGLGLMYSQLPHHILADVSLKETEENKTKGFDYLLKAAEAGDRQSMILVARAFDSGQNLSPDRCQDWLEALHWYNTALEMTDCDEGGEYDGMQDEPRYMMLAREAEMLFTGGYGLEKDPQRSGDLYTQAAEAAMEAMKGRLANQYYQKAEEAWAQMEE

Key:
[1] = biological target: Tyrosine-protein kinase Mer (Homo sapiens) (UniProt Q12866); conditions: at 1 µM
[2] = biological target: Tyrosine-protein kinase Mer (Homo sapiens) (UniProt Q12866); conditions: at 10 µM
[3] = biological target: Hepatocyte growth factor receptor (Homo sapiens) (UniProt P08581); conditions: at 1 µM
[4] = biological target: Hepatocyte growth factor receptor (Homo sapiens) (UniProt P08581); conditions: at 10 µM
[5] = biological target: MAP kinase-interacting serine/threonine-protein kinase 2 (Homo sapiens) (UniProt Q9HBH9); conditions: at 1 µM
[6] = biological target: MAP kinase-interacting serine/threonine-protein kinase 2 (Homo sapiens) (UniProt Q9HBH9); conditions: at 10 µM
[7] = biological target: Muscle, skeletal receptor tyrosine-protein kinase (Homo sapiens) (UniProt O15146); conditions: at 1 µM
[8] = biological target: Muscle, skeletal receptor tyrosine-protein kinase (Homo sapiens) (UniProt O15146); conditions: at 10 µM
[9] = biological target: Serine/threonine-protein kinase Nek11 (Homo sapiens) (UniProt Q8NG66); conditions: at 1 µM
[10] = biological target: Serine/threonine-protein kinase Nek11 (Homo sapiens) (UniProt Q8NG66); conditions: at 10 µM
[11] = biological target: Serine/threonine-protein kinase Nek2 (Homo sapiens) (UniProt P51955); conditions: at 1 µM
[12] = biological target: Serine/threonine-protein kinase Nek2 (Homo sapiens) (UniProt P51955); conditions: at 10 µM
[13] = biological target: Serine/threonine-protein kinase Nek3 (Homo sapiens) (UniProt P51956); conditions: at 1 µM
[14] = biological target: Serine/threonine-protein kinase Nek3 (Homo sapiens) (UniProt P51956); conditions: at 10 µM
[15] = biological target: Serine/threonine-protein kinase tousled-like 2 (Homo sapiens) (UniProt Q86UE8); conditions: at 1 µM
[16] = biological target: Serine/threonine-protein kinase tousled-like 2 (Homo sapiens) (UniProt Q86UE8); conditions: at 10 µM
[17] = biological target: Testis-specific serine/threonine-protein kinase 1 (Homo sapiens) (UniProt Q9BXA7); conditions: at 1 µM
[18] = biological target: Testis-specific serine/threonine-protein kinase 1 (Homo sapiens) (UniProt Q9BXA7); conditions: at 10 µM
[19] = biological target: Testis-specific serine/threonine-protein kinase 2 (Homo sapiens) (UniProt Q96PF2); conditions: at 1 µM
[20] = biological target: Testis-specific serine/threonine-protein kinase 2 (Homo sapiens) (UniProt Q96PF2); conditions: at 10 µM
[21] = biological target: Tyrosine-protein kinase Tec (Homo sapiens) (UniProt P42680); conditions: at 1 µM
[22] = biological target: Tyrosine-protein kinase Tec (Homo sapiens) (UniProt P42680); conditions: at 10 µM
[23] = biological target: Angiopoietin-1 receptor (Homo sapiens) (UniProt Q02763); conditions: at 1 µM
[24] = biological target: Angiopoietin-1 receptor (Homo sapiens) (UniProt Q02763); conditions: at 10 µM
[25] = biological target: High affinity nerve growth factor receptor (Homo sapiens) (UniProt P04629); conditions: at 1 µM
[26] = biological target: High affinity nerve growth factor receptor (Homo sapiens) (UniProt P04629); conditions: at 10 µM
[27] = biological target: BDNF/NT-3 growth factors receptor (Homo sapiens) (UniProt Q16620); conditions: at 1 µM
[28] = biological target: BDNF/NT-3 growth factors receptor (Homo sapiens) (UniProt Q16620); conditions: at 10 µM
[29] = biological target: Tyrosine-protein kinase TXK (Homo sapiens) (UniProt P42681); conditions: at 1 µM
[30] = biological target: Tyrosine-protein kinase TXK (Homo sapiens) (UniProt P42681); conditions: at 10 µM
[31] = biological target: Serine/threonine-protein kinase ULK2 (Homo sapiens) (UniProt Q8IYT8); conditions: at 1 µM
[32] = biological target: Serine/threonine-protein kinase ULK2 (Homo sapiens) (UniProt Q8IYT8); conditions: at 10 µM
[33] = biological target: Serine/threonine-protein kinase ULK3 (Homo sapiens) (UniProt Q6PHR2); conditions: at 1 µM
[34] = biological target: Serine/threonine-protein kinase ULK3 (Homo sapiens) (UniProt Q6PHR2); conditions: at 10 µM
[35] = biological target: Serine/threonine-protein kinase VRK2 (Homo sapiens) (UniProt Q86Y07); conditions: at 1 µM
[36] = biological target: Serine/threonine-protein kinase VRK2 (Homo sapiens) (UniProt Q86Y07); conditions: at 10 µM
[37] = biological target: Serine/threonine-protein kinase WNK2 (Homo sapiens) (UniProt Q9Y3S1); conditions: at 1 µM
[38] = biological target: Serine/threonine-protein kinase WNK2 (Homo sapiens) (UniProt Q9Y3S1); conditions: at 10 µM
[39] = biological target: Serine/threonine-protein kinase WNK3 (Homo sapiens) (UniProt Q9BYP7); conditions: at 1 µM
[40] = biological target: Serine/threonine-protein kinase WNK3 (Homo sapiens) (UniProt Q9BYP7); conditions: at 10 µM
[41] = biological target: Tyrosine-protein kinase Yes (Homo sapiens) (UniProt P07947); conditions: at 1 µM
[42] = biological target: Tyrosine-protein kinase Yes (Homo sapiens) (UniProt P07947); conditions: at 10 µM
[43] = biological target: Tyrosine-protein kinase ZAP-70 (Homo sapiens) (UniProt P43403); conditions: at 1 µM
[44] = biological target: Tyrosine-protein kinase ZAP-70 (Homo sapiens) (UniProt P43403); conditions: at 10 µM
[45] = biological target: Death-associated protein kinase 3 (Homo sapiens) (UniProt O43293); conditions: at 1 µM
[46] = biological target: Death-associated protein kinase 3 (Homo sapiens) (UniProt O43293); conditions: at 10 µM
[47] = biological target: RAF proto-oncogene serine/threonine-protein kinase (Homo sapiens) (UniProt P04049); conditions: at 1 µM
[48] = biological target: RAF proto-oncogene serine/threonine-protein kinase (Homo sapiens) (UniProt P04049); conditions: at 10 µM
[49] = biological target: Mast/stem cell growth factor receptor Kit (Homo sapiens) (UniProt P10721); conditions: at 1 µM
[50] = biological target: Mast/stem cell growth factor receptor Kit (Homo sapiens) (UniProt P10721); conditions: at 10 µM
[51] = biological target: Proto-oncogene tyrosine-protein kinase Src (Homo sapiens) (UniProt P12931); conditions: at 1 µM
[52] = biological target: Proto-oncogene tyrosine-protein kinase Src (Homo sapiens) (UniProt P12931); conditions: at 10 µM
[53] = biological target: Eukaryotic elongation factor 2 kinase (Homo sapiens) (UniProt O00418); conditions: at 1 µM
[54] = biological target: Eukaryotic elongation factor 2 kinase (Homo sapiens) (UniProt O00418); conditions: at 10 µM
[55] = biological target: Serine/threonine-protein kinase mTOR (Homo sapiens) (UniProt P42345); conditions: at 1 µM
[56] = biological target: Serine/threonine-protein kinase mTOR (Homo sapiens) (UniProt P42345); conditions: at 10 µM

Molecule O=C1Nc2ccc(-c3cccnc3)cc2/C1=C\c1ccc[nH]1 has a residual activity [1] of 8%, a residual activity [2] of 1% and a residual activity [3] of 62%. The residual activity [4] was 10%, the residual activity [5] was 47% and the residual activity [6] was 14%. For the same molecule, the residual activity [7] was 25%, the residual activity [8] was 2% and the residual activity [9] was 40%. It also gave a residual activity [10] of 8%, a residual activity [11] of 65% and a residual activity [12] of 33%. It also gave a residual activity [13] of 98%, a residual activity [14] of 54% and a residual activity [15] of 38%. For the same molecule, the residual activity [16] was 5%, the residual activity [17] was 21% and the residual activity [18] was 2%. For the same molecule, the residual activity [19] was 88%, the residual activity [20] was 61% and the residual activity [21] was 103%. For the same molecule, the residual activity [22] was 32%, the residual activity [23] was 34% and the residual activity [24] was 10%. The residual activity [25] was 1%, the residual activity [26] was 1% and the residual activity [27] was 6%. It also gave a residual activity [28] of -12%, a residual activity [29] of 53% and a residual activity [30] of 12%. The residual activity [31] was 46%, the residual activity [32] was 8% and the residual activity [33] was 37%. For the same molecule, the residual activity [34] was 7%, the residual activity [35] was inactive: 88% and the residual activity [36] was 39%. For the same molecule, the residual activity [37] was inactive: 80%, the residual activity [38] was 55% and the residual activity [39] was inactive: 99%. For the same molecule, the residual activity [40] was 58%, the residual activity [41] was 14% and the residual activity [42] was 2%. It also gave a residual activity [43] of 98%, a residual activity [44] of 109% and a residual activity [45] of 91%. For the same molecule, the residual activity [46] was 38%, the residual activity [47] was 69% and the residual activity [48] was 63%. It also gave a residual activity [49] of 104%, a residual activity [50] of 63% and a residual activity [51] of 68%. For the same molecule, the residual activity [52] was 32%, the residual activity [53] was inactive: 83% and the residual activity [54] was 112%. The residual activity [55] was 107% and the residual activity [56] was 100%.
